Measurements taken from article PMC4188579.
Results are given in words; binding and its absence hold for the method and conditions named. Binding seen in cells or lysates may run through a third protein. Some results given as binding are weak or reduced against the parent protein; the word gives no strength.

Protein sequences, listed by entry. Tags and fused reporters are not part of them.
UniProt P25911: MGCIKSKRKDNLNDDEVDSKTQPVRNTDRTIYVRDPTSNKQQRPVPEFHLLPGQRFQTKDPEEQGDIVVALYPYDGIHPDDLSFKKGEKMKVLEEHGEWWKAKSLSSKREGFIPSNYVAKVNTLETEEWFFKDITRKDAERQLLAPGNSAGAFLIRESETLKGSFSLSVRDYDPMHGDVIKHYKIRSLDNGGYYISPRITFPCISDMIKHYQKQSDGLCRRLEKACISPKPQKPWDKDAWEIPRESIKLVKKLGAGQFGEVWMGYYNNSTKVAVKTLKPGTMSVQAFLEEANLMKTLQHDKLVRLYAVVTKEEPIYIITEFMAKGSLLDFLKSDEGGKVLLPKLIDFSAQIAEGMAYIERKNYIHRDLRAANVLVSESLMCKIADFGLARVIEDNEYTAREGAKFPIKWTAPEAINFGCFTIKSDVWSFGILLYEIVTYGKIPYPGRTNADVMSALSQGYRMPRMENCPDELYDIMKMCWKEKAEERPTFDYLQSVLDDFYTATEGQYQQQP

Biological target: T1, Phospholipid Scramblase 1 (mouse (endogenous in BMMC)) (UniProt Q9JJ00)
T1 sequence: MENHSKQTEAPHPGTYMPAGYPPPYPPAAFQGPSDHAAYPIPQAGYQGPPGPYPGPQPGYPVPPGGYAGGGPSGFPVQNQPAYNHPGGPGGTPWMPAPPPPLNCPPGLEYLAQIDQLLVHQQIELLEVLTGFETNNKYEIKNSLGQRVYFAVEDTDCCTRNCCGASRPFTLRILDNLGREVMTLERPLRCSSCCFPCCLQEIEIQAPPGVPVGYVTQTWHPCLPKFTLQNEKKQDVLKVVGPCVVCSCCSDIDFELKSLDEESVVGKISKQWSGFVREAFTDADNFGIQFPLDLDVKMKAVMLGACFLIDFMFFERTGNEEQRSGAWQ
Test: co-IP; lysates (0.5% Triton X-100) of IgE-sensitized BMMC from wild-type and Fyn-deficient mice, stimulated or not with antigen for 10 min; PLSCR1 immunoprecipitated with mAb 1A8 on beads, 2 hr at 4°C; blot with anti-Lyn antibodies

“Lyn tyrosine kinase (from UniProt P25911 1-512) (enzyme)” was tested, and the binding was “binds”.
